Results reported in article PMC11140114.

Sequences of proteins named here, by UniProt entry; tags and fusion partners are left off.
UniProt O00429: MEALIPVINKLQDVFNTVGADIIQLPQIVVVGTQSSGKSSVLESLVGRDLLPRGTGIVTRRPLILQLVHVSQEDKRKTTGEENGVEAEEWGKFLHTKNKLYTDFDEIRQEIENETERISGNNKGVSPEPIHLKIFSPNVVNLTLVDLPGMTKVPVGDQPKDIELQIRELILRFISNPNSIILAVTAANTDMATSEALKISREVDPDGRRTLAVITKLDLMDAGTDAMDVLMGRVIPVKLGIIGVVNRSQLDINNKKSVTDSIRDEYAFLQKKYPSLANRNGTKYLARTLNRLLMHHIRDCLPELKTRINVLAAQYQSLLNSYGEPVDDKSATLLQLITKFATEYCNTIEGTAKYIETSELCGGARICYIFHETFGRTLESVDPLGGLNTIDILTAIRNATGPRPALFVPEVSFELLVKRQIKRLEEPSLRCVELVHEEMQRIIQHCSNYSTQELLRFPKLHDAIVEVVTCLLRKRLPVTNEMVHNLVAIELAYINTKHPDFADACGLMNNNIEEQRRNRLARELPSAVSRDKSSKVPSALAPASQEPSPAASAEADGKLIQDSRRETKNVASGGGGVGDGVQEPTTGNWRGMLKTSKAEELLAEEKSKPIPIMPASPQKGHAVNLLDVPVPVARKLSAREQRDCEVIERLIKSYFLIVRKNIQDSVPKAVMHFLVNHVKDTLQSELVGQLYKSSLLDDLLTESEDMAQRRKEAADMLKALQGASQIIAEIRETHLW

B1: peroxisomal multifunctional enzyme type 2 (enzyme, UniProt P51659 1-736)
chain: MGSPLRFDGRVVLVTGAGAGLGRAYALAFAERGALVVVNDLGGDFKGVGKGSLAADKVVEEIRRRGGKAVANYDSVEEGEKVVKTALDAFGRIDVVVNNAGILRDRSFARISDEDWDIIHRVHLRGSFQVTRAAWEHMKKQKYGRIIMTSSASGIYGNFGQANYSAAKLGLLGLANSLAIEGRKSNIHCNTIAPNAGSRMTQTVMPEDLVEALKPEYVAPLVLWLCHESCEENGGLFEVGAGWIGKLRWERTLGAIVRQKNHPMTPEAVKANWKKICDFENASKPQSIQESTGSIIEVLSKIDSEGGVSANHTSRATSTATSGFAGAIGQKLPPFSYAYTELEAIMYALGVGASIKDPKDLKFIYEGSSDFSCLPTFGVIIGQKSMMGGGLAEIPGLSINFAKVLHGEQYLELYKPLPRAGKLKCEAVVADVLDKGSGVVIIMDVYSYSEKELICHNQFSLFLVGSGGFGGKRTSDKVKVAVAIPNRPPDAVLTDTTSLNQAALYRLSGDWNPLHIDPNFASLAGFDKPILHGLCTFGFSARRVLQQFADNDVSRFKAIKARFAKPVYPGQTLQTEMWKEGNRIHFQTKVQETGDIVISNAYVDLAPTSGTSAKTPSEGGKLQSTFVFEEIGRRLKDIGPEVVKKVNAVFEWHITKGGNIGAKWTIDLKSGSGKVYQGPAKGAADTTIILSDEDFMEVVLGKLDPQKAFFSGRLKARGNIMLSQKLQMILKDYAKL
B2: CDGSH iron-sulfur domain-containing protein 1 (protein, UniProt Q9NZ45 1-108)
chain: MSLTSSSSVRVEWIAAVTIAAGTAAIGYLAYKRFYVKDHRNKAMINLHIQKDNPKIVHAFDMEDLGDKAVYCRCWRSKKFPFCDGAHTKHNEETGDNVGPLIIKKKET
B3: hydroxysteroid dehydrogenase-like protein 2 (protein, UniProt Q6YN16 1-418)
chain: MLPNTGRLAGCTVFITGASRGIGKAIALKAAKDGANIVIAAKTAQPHPKLLGTIYTAAEEIEAVGGKALPCIVDVRDEQQISAAVEKAIKKFGGIDILVNNASAISLTNTLDTPTKRLDLMMNVNTRGTYLASKACIPYLKKSKVAHILNISPPLNLNPVWFKQHCAYTIAKYGMSMYVLGMAEEFKGEIAVNALWPKTAIHTAAMDMLGGPGIESQCRKVDIIADAAYSIFQKPKSFTGNFVIDENILKEEGIENFDVYAIKPGHPLQPDFFLDEYPEAVSKKVESTGAVPEFKEEKLQLQPKPRSGAVEETFRIVKDSLSDDVVKATQAIYLFELSGEDGGTWFLDLKSKGGNVGYGEPSDQADVVMSMTTDDFVKMFSGKLKPTMAFMSGKLKIKGNMALAIKLEKLMNQMNARL

molecular target: endogenous Drp1 (human (endogenous in HEK293, HeLa, U2OS)) (UniProt O00429); experiment: affinity purification with mass spectrometry; proteins enriched together with endogenous Drp1 on the D7 and D63 nanotraps against GFP-Trap, soluble protein fraction of HEK293 cells; multi-volcano analysis, class A FDR 0.01, class B FDR 0.05

binding, binds:
B1, B2, B3

These are yes or no findings as the source states them, for the method shown. Binding seen in cells or lysates may run through a third protein. Here binding means that the protein was enriched with, or labelled near, the bait; the list need not be complete.
